# According to the supplement of paper PMC10338343:
# ± gives the standard deviation. The entries are a selection whose mix differs from that of the whole data set. Many entries were measured with a wide error.
# Key:
# [1] = system: MIWI (PIWIL1) piRISC loaded with piRNA #1 (30 nt); assay: pre-steady-state target cleavage rate (min^-1); higher = faster piRNA-guided slicing of the target; settings: guide: piRNA #1 5'p-UGAGGUAGUAGGUUGUAUAGUAUCCAGAGG; auxiliary factor: 500 nM mouse GTSF1
# In short: (§1)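 The method was Cleave-'n-Seq, in which uncleaved targets from a transcribed, DNA-blocked target RNA library were sequenced after exposure to active affinity-purified piRISC carrying one synthetic guide, with or without GTSF1 partner protein. Reactions contained 0.1 nM library, 1 nM piRISC and, where present, 500 nM GTSF1 in HEPES–potassium acetate buffer at 33 °C for 0–8 or 0–960 min. Reads were normalised to depth and to weakly complementary targets, three trials were pooled, and k3 was capped at 0.0001 min^-1. The pre-steady-state cleavage rate came from a burst-and-steady-state fit.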
# [2] = system: EfPiwi piRISC loaded with piRNA #1 (26 nt); assay: pre-steady-state target cleavage rate (min^-1); guide: piRNA #1 5'p-UGAGGUAGUAGGUUGUAUAGUAUCCA; MIWI and MILI are mouse PIWI proteins and EfPiwi is from a freshwater sponge; tags in brackets are library labels; higher = faster piRNA-guided slicing of the target; settings: auxiliary factor: 500 nM Ephydatia muelleri Gtsf1
# In short: as §1
sequence,measurement,setting,value
GGAGUUGAUACUAUACAACCUACUACCUCA,pre-steady-state target cleavage rate,[1],1.97 ± 0.13
same,pre-steady-state target cleavage rate,[2],0.193 ± 0.06
GGAGAGAUACUAUACAACCUACUACCUCA,pre-steady-state target cleavage rate,[1],1.89 ± 0.11
same,pre-steady-state target cleavage rate,[2],0.121 ± 0.054
GGAGACCUAUGAUAACAACUUACUACCUCA,pre-steady-state target cleavage rate,[1],0.00104 ± 0.0048
same,pre-steady-state target cleavage rate,[2],0.000285 ± 0.007
GGAGACCUAUGAUAACAACCUACUACGCUCA,pre-steady-state target cleavage rate,[1],0.00157 ± 0.0033
same,pre-steady-state target cleavage rate,[2],< 0.0001
GGAGACCUAUGAUUACAUGCUACUACCUCA,pre-steady-state target cleavage rate,[1],0.00177 ± 0.0051
same,pre-steady-state target cleavage rate,[2],0.00285 ± 0.0042
GGAGACCUAUGUAUAGUUCCUACUACCUCA,pre-steady-state target cleavage rate,[1],0.000968 ± 0.0059
same,pre-steady-state target cleavage rate,[2],0.00209 ± 0.0042
GGAGACCUAUGAAUACAAGCUACUACGUCA,pre-steady-state target cleavage rate,[1],0.000458 ± 0.0068
same,pre-steady-state target cleavage rate,[2],0.000606 ± 0.013
GGAGACCAUACUAAACAACCUACUACCUGA,pre-steady-state target cleavage rate,[1],0.604 ± 0.08
same,pre-steady-state target cleavage rate,[2],0.00245 ± 0.0027
GGAGACCUAACUAUAGAACCUACUACCUGA,pre-steady-state target cleavage rate,[1],0.188 ± 0.066
same,pre-steady-state target cleavage rate,[2],0.000927 ± 0.0065
GGAGACCUAUGAAUACAACCUACUACACUCA,pre-steady-state target cleavage rate,[1],0.00198 ± 0.0029
same,pre-steady-state target cleavage rate,[2],0.000683 ± 0.013
GGAGACCUAUGAAGACAACCUACUACCUCA,pre-steady-state target cleavage rate,[1],0.00249 ± 0.0039
same,pre-steady-state target cleavage rate,[2],0.00358 ± 0.0041
GGAGACCUAUGAUUACAACCUACUAGCCUCA,pre-steady-state target cleavage rate,[1],0.000807 ± 0.0045
same,pre-steady-state target cleavage rate,[2],0.0011 ± 0.007
GGAGACCUAUGAUAUGUACGUACAACCUCA,pre-steady-state target cleavage rate,[1],0.000237 ± 0.018
same,pre-steady-state target cleavage rate,[2],0.000198 ± 0.014
GGAGACGAUACUUUACAACCUACUAGCUCA,pre-steady-state target cleavage rate,[1],0.142 ± 0.027
same,pre-steady-state target cleavage rate,[2],0.00154 ± 0.0021
GGAGACCUAACUAUACAACCUACAUGCUCA,pre-steady-state target cleavage rate,[1],0.000808 ± 0.011
same,pre-steady-state target cleavage rate,[2],0.000186 ± 0.017
GGAGACCUAUGAAUACAACGUACUACCACA,pre-steady-state target cleavage rate,[1],0.000224 ± 0.013
same,pre-steady-state target cleavage rate,[2],0.000112 ± 0.036
GGAGACCUAUGUAUACAACCUAGUUCCUCA,pre-steady-state target cleavage rate,[1],0.00129 ± 0.003
same,pre-steady-state target cleavage rate,[2],0.00154 ± 0.0069
GGAGACCUAUGAUAUGUUGCUACUAGCACA,pre-steady-state target cleavage rate,[1],0.00101 ± 0.008
same,pre-steady-state target cleavage rate,[2],0.000998 ± 0.0062
GGAGACCUAUGUUUUCAACCUACUACCUCA,pre-steady-state target cleavage rate,[1],0.00229 ± 0.0032
same,pre-steady-state target cleavage rate,[2],0.00124 ± 0.007
GGAGACCAUACUAUACAACCUACUACCUUCA,pre-steady-state target cleavage rate,[1],1.59 ± 0.1
same,pre-steady-state target cleavage rate,[2],0.0679 ± 0.02
GGAGACCUAUGAUAUGUUGCUACUACGCUCA,pre-steady-state target cleavage rate,[1],0.000845 ± 0.0075
same,pre-steady-state target cleavage rate,[2],0.000911 ± 0.0056
GGAGACCUAUGUAUACUACCUACUACCACA,pre-steady-state target cleavage rate,[1],0.00194 ± 0.0027
same,pre-steady-state target cleavage rate,[2],0.000774 ± 0.013
GGAGACCUAUGUAUACAACCAACUACCUCA,pre-steady-state target cleavage rate,[1],0.00174 ± 0.0024
same,pre-steady-state target cleavage rate,[2],0.000861 ± 0.007
GGAGACCUAUGAUAUGUUGCUACUACUUCA,pre-steady-state target cleavage rate,[1],0.00178 ± 0.0047
same,pre-steady-state target cleavage rate,[2],0.000703 ± 0.0056
GGAGACCUAUGAUUACAUCCUACUACCUCA,pre-steady-state target cleavage rate,[1],0.00137 ± 0.0038
same,pre-steady-state target cleavage rate,[2],0.00134 ± 0.0035
GGAGACCUAUGAAUACAACCUACUAGCCUCA,pre-steady-state target cleavage rate,[1],0.00142 ± 0.0048
same,pre-steady-state target cleavage rate,[2],0.000162 ± 0.021
GGAGACCUAUGAUUACAACCUACUACCCUCA,pre-steady-state target cleavage rate,[1],0.00118 ± 0.0056
same,pre-steady-state target cleavage rate,[2],0.000968 ± 0.0075
GGAGACCUAUGAUAUGUUGCUACUACCUCU [g2:g11:cont:t1U],pre-steady-state target cleavage rate,[1],0.000156 ± 0.014
same,pre-steady-state target cleavage rate,[2],0.000302 ± 0.009
GGAGACCUAACUAUACUAGCUACUACCUCA,pre-steady-state target cleavage rate,[1],0.0132 ± 0.006
same,pre-steady-state target cleavage rate,[2],0.00203 ± 0.0041
GGAGACCUAUGAUAUGUUGGUAACUACCUCA,pre-steady-state target cleavage rate,[1],0.000641 ± 0.0077
same,pre-steady-state target cleavage rate,[2],0.000584 ± 0.0067
GGAGACCUAUCAAUACAACGUACUACCUCA,pre-steady-state target cleavage rate,[1],0.00242 ± 0.0031
same,pre-steady-state target cleavage rate,[2],0.00144 ± 0.004
GGAGACCUAUGAAUACAACGUACUAGCUCA,pre-steady-state target cleavage rate,[1],0.000464 ± 0.0089
same,pre-steady-state target cleavage rate,[2],0.00135 ± 0.0062
GGAGACCUAUGAUUUACAACCUACUACCUCA,pre-steady-state target cleavage rate,[1],0.00209 ± 0.0041
same,pre-steady-state target cleavage rate,[2],0.00279 ± 0.005
GGAGACCUAUGAUUACUACCUACAACCUCA,pre-steady-state target cleavage rate,[1],0.000145 ± 0.012
same,pre-steady-state target cleavage rate,[2],0.000183 ± 0.012
GGAGACCUAACUUUUCAACCUACUACCUCA,pre-steady-state target cleavage rate,[1],0.00417 ± 0.0048
same,pre-steady-state target cleavage rate,[2],0.00135 ± 0.0078
GGAGACCUAUGUAUACAACCGUACUACCUCA,pre-steady-state target cleavage rate,[1],0.00151 ± 0.0058
same,pre-steady-state target cleavage rate,[2],0.000196 ± 0.016
GGAGACCUAUGUUUACAUCCUACUACCUCA,pre-steady-state target cleavage rate,[1],0.00238 ± 0.0028
same,pre-steady-state target cleavage rate,[2],0.00263 ± 0.0054
GGAGACCUAUGAUUACAACCUUCUACCUCA,pre-steady-state target cleavage rate,[1],0.00128 ± 0.0027
same,pre-steady-state target cleavage rate,[2],0.00125 ± 0.0046
GGAGACCUAUGAUUAUCAACCUACUACCUCA,pre-steady-state target cleavage rate,[1],0.00146 ± 0.0025
same,pre-steady-state target cleavage rate,[2],0.000725 ± 0.01
GGAGACCUAUGAUAUGUUCCUACUACCUUCA,pre-steady-state target cleavage rate,[1],0.000152 ± 0.016
same,pre-steady-state target cleavage rate,[2],0.00017 ± 0.0094
GGAGACCUAUGAUUACAACCUACUUCCUCA,pre-steady-state target cleavage rate,[1],0.000297 ± 0.0058
same,pre-steady-state target cleavage rate,[2],0.00182 ± 0.0048
GGAGACCUAUGAUUACAACGUACUACCUCA,pre-steady-state target cleavage rate,[1],0.000935 ± 0.0029
same,pre-steady-state target cleavage rate,[2],0.00195 ± 0.0045
GGAGACCUAUGAUUACAACCUACUGCCUCA,pre-steady-state target cleavage rate,[1],0.000222 ± 0.0086
same,pre-steady-state target cleavage rate,[2],0.00279 ± 0.0039
GGAGACCUAACUAUACAACAUACUACCUCA,pre-steady-state target cleavage rate,[1],0.303 ± 0.036
same,pre-steady-state target cleavage rate,[2],0.00659 ± 0.0046
GGAGACGAUACUAUACAACCUACUACCGUCA,pre-steady-state target cleavage rate,[1],0.443 ± 0.065
same,pre-steady-state target cleavage rate,[2],0.00873 ± 0.0037
GGAGACCUAUGUAUUCAACGUACUACCUCA,pre-steady-state target cleavage rate,[1],0.00117 ± 0.0029
same,pre-steady-state target cleavage rate,[2],0.000375 ± 0.0068
GGAGACCUAUGAUAUGUACCUGACUACCUCA,pre-steady-state target cleavage rate,[1],0.000195 ± 0.012
same,pre-steady-state target cleavage rate,[2],0.000141 ± 0.022
GGAGACCUAACAAUUCAACCUACUACCUCA,pre-steady-state target cleavage rate,[1],0.000243 ± 0.02
same,pre-steady-state target cleavage rate,[2],0.00107 ± 0.0077

# Some of the entries above in another layout:
sequence | measurement | setting | value
GGAGACCUAUGAUAUGUACGUACAACCUCA | pre-steady-state target cleavage rate | [1] | 0.000237 ± 0.018
GGAGACCUAUGAAUACAACGUACUACCACA | pre-steady-state target cleavage rate | [1] | 0.000224 ± 0.013
GGAGACCUAUGUAUACUACCUACUACCACA | pre-steady-state target cleavage rate | [2] | 0.000774 ± 0.013
GGAGACCUAACUAUACUAGCUACUACCUCA | pre-steady-state target cleavage rate | [2] | 0.00203 ± 0.0041
GGAGACCUAUGAUAUGUACCUGACUACCUCA | pre-steady-state target cleavage rate | [2] | 0.000141 ± 0.022

# Taken from above (two entries):
sequence,measurement,setting,value
GGAGACCUAACUAUACAACCUACAUGCUCA,pre-steady-state target cleavage rate,[1],0.000808 ± 0.011
same,pre-steady-state target cleavage rate,[2],0.000186 ± 0.017
